# The supplement of paper PMC10338343
# ± gives the standard deviation. Some of the results follow. Many of these values have a large error.
# Test system: EfPiwi piRISC loaded with L1MC piRNA (26 nt)
# Assay: pre-steady-state target cleavage rate (min^-1); guide: L1MC piRNA 5'p-UAACUAAAUACUAUGCAAGCUGUAGG; MIWI and MILI are mouse PIWI proteins and EfPiwi is from a freshwater sponge; tags in brackets are library labels; higher = faster piRNA-guided slicing of the target
# Settings: auxiliary factor: 500 nM Ephydatia muelleri Gtsf1
# Summary of the method: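 At 33 °C in HEPES–potassium acetate buffer, a transcribed, DNA-blocked target RNA library […] was exposed for 0–8 or 0–960 min to 1 nM active affinity-purified piRISC carrying a single synthetic guide, with or without 500 nM GTSF1 partner protein. Uncleaved targets were sequenced and normalised to depth and to weakly complementary targets. With three trials pooled and k3 capped at 0.0001 min^-1, a burst-and-steady-state fit produced the pre-steady-state cleavage rate.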
row,Sequence,pre-steady-state target cleavage rate
1,UCCUGGUACUGCUUGCAAAGUAUUUAGUUA,0.0752 ± 0.027
2,UCCUGGAUGAGCCUUGCAUAGUAUUUAGUUA,0.00885 ± 0.0032
3,UCCUCCUACACUUGCAUAGUAUUUAGUUA,0.049 ± 0.015
4,UCCUGGAUGUCCCUGCAUAGUAUUUAGUUA,0.00326 ± 0.0026
5,UCCUGGAUGUCCUUGCAAAGUAUUUAGUUA,0.00235 ± 0.0036
6,UCCUGGAACAGCUAGCAUAGUAUUAAGUUA,0.0146 ± 0.0061
7,UCCUGGAUGUCGAUGCAUAGAAAUUAGUUA,0.000251 ± 0.012
8,UCCUGGAACAGGUUGCAAAGUAUUUAGUUA,0.0118 ± 0.0039
9,UCCUGGAUCAGCUUGCAAAGUAUUUAGUAA,0.00607 ± 0.0027
10,UCCUGGAUGUCCUGCAUAGUAUUUAGUUA,0.00358 ± 0.0026
11,UCCUGGAUCAGGUUGCAUAGUAUUUAGUAA,0.00537 ± 0.0021
12,UCCUGGUACAGCAUGCAUAGUUUUUAGUUA,0.0046 ± 0.0027
13,UCCUGGAUCAGCUUAGCAUAGUAUUUAGUUA,0.0874 ± 0.019
14,UCCUGGAACUGCUUGGAUAGUAUUUAGUUA,0.0527 ± 0.014
15,UCCUGGAUGAGCUUCGAUAGUAUUUAGAAA,0.00142 ± 0.0066
16,UCCUGCUACUCGUUGCAUAGUAUUUAGUAA,0.00326 ± 0.0038
17,UCCUGGAUGUCGAACCAAUGUAUUUAGUUA,0.000276 ± 0.018

row,Sequence,pre-steady-state target cleavage rate
1,UCCUGGAACAGACUUGCAUAGUAUUUAGUUA,0.0135 ± 0.0042
2,UCCUGGAUGUCGUUGCAUAGUAUAUACUUA,0.000295 ± 0.021
3,UCCUUCUACAGCUUGCAUAGUAUUUAGUUA,0.119 ± 0.035
4,UCCUCCUACUCGUUGCAUAGUAUUUAGUUA,0.101 ± 0.025
5,UCCUGGAUGUCGAACGUUAGUAUAUUAGUUA,0.000475 ± 0.013
6,UCCUGGAACAGCUUGCUUAGUAUAUAGUUA,0.0104 ± 0.0048
7,UCCUGGAUGUCGAACGAUAGUGAUUUAGUUA,< 0.0001
8,UCCUGGUACAGCUUGCAUUGAAUUUAGUUA,0.000511 ± 0.013
9,UCCUGGAACAUCUUGCAUAGUAUUUAGUUA,0.0653 ± 0.016
10,UCCUCCUACAGGUUGCAUAGUAUAUAGUUA,0.0129 ± 0.0046
11,UCCUGGAUCAUGCUUGCAUAGUAUUUAGUUA,0.0911 ± 0.025
12,UCCUCCUACAGCUUGCAUGUAUUUAGUUA,0.00924 ± 0.0046
13,UCCUGGAUGUGCUUGCAUCGUAUUUAGUUA,0.00598 ± 0.0028
14,UCCUCCUACAGCUUGCAUAGUACUUAGUUA,0.013 ± 0.0053
15,UCCUGCUUCAGCUUGCAUAGUAUUUACUUA,0.00411 ± 0.0037
16,UCCUGGAACUCGUUGCAUAGUAUUUAGUAA,0.00259 ± 0.0037
17,UCCUGGAUGUGCUUGCUUAGUAUUUAGUAA,0.00141 ± 0.0054
